This is one part of the list. This is a noisy data set.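 Many melting curves are irregular; where none melted, Tm was taken as 64 °C.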

The chains behind the UniProt entries cited, without tags or fusion partners. Where a name states a change or a piece, a line headed by the entry shows the natural chain unless it says otherwise.
UniProt Q9BUP0: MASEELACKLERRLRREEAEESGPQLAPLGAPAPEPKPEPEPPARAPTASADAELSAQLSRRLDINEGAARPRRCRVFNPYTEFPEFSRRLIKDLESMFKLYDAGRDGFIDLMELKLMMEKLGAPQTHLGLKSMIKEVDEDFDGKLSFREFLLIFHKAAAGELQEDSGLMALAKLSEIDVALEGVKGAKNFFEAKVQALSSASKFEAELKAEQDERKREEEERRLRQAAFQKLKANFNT
UniProt Q99627: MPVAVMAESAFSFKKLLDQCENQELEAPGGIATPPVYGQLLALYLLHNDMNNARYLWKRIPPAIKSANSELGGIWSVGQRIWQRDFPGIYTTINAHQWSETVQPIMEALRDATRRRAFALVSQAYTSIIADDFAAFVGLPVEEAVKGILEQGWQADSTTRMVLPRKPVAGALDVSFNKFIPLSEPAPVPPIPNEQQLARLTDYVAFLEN
UniProt Q9BTF0: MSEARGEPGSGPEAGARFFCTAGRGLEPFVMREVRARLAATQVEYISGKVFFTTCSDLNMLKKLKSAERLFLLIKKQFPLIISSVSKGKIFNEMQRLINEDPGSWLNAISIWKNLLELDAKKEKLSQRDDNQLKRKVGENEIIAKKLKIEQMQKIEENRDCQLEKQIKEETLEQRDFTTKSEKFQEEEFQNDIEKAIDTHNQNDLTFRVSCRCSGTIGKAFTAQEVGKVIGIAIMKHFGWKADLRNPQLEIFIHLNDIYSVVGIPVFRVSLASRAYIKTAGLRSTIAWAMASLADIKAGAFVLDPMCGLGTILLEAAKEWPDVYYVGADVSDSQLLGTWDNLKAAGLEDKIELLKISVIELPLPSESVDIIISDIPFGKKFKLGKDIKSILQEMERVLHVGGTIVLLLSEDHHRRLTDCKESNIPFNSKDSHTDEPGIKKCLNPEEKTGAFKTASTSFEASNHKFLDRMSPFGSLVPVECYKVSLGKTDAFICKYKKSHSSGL
UniProt Q9BTZ2: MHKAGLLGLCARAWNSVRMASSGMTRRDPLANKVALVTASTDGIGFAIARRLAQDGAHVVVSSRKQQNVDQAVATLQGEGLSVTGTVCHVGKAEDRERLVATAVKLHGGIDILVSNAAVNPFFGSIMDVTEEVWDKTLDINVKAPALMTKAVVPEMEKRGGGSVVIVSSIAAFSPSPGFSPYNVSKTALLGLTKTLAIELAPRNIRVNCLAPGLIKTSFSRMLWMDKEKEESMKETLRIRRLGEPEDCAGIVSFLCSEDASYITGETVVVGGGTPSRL
UniProt Q9BXB5: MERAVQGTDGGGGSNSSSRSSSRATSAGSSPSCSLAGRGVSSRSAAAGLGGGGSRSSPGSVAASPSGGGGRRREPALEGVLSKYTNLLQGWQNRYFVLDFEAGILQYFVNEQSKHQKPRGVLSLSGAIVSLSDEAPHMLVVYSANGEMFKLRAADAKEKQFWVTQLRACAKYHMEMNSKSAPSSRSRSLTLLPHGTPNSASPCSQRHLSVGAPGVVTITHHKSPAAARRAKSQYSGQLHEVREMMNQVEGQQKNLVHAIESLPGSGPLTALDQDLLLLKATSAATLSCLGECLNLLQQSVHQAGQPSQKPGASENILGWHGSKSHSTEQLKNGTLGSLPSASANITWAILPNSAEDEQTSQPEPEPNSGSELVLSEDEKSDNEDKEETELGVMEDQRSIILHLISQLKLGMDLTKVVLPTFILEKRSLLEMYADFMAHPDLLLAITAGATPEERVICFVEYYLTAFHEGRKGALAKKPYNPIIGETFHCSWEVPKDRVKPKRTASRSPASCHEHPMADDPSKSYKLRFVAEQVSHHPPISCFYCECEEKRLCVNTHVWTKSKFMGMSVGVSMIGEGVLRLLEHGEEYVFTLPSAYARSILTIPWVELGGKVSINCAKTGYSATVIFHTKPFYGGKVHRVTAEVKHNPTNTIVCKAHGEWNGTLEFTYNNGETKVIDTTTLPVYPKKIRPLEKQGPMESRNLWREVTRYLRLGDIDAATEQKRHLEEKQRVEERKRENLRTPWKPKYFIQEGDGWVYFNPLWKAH
UniProt Q9BT73: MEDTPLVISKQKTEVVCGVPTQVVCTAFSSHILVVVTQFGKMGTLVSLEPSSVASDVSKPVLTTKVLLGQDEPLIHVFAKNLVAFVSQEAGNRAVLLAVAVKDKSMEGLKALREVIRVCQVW
UniProt Q9BTD8: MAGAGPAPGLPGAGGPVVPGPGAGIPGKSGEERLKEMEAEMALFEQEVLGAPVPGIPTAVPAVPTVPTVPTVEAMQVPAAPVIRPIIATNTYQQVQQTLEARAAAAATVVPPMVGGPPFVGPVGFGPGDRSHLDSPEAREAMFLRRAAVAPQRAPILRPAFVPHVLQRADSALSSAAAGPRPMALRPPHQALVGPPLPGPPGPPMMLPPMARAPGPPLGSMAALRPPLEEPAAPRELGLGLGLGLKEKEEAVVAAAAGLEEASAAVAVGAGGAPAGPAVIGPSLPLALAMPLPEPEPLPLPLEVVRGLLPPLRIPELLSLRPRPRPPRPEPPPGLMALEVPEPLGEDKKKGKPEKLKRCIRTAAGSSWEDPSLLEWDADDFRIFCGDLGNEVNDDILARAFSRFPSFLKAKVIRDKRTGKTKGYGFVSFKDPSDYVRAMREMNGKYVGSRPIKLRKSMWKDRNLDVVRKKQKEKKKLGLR
UniProt Q9BWS9: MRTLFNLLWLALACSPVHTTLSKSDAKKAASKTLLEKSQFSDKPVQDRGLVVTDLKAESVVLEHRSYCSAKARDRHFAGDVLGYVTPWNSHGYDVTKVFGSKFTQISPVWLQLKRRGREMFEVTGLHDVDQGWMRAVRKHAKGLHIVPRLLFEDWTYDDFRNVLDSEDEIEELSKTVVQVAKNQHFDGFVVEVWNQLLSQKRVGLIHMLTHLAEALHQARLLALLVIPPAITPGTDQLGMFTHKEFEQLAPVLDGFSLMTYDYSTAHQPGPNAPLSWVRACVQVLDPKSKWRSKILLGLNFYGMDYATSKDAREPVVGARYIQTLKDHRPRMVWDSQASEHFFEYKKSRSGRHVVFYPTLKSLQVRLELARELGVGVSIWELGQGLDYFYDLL
UniProt Q9BRK4: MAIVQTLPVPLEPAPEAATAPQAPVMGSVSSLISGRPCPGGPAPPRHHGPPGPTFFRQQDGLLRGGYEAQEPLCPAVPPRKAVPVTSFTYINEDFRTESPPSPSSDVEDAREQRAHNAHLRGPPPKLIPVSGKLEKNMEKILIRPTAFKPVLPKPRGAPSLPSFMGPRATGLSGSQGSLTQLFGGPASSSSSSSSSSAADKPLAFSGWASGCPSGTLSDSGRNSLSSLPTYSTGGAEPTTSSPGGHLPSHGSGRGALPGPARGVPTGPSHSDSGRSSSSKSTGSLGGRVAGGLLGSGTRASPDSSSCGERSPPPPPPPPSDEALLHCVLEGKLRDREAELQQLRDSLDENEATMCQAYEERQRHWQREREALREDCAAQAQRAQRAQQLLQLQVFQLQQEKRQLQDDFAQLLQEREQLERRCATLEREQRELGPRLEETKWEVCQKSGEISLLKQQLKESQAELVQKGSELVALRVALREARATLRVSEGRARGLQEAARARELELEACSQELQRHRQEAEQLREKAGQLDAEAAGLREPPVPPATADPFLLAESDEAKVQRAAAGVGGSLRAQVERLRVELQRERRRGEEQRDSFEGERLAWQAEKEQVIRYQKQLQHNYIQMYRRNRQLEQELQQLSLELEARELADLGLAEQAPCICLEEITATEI
UniProt Q9BU64: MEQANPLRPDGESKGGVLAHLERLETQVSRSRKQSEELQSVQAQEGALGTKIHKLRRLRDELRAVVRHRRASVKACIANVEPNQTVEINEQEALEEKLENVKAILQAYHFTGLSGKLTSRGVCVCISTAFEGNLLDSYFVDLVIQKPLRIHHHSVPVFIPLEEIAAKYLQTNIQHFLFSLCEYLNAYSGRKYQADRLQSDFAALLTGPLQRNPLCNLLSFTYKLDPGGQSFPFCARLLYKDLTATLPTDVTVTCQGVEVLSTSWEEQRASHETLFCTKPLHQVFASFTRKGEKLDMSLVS
UniProt Q99622: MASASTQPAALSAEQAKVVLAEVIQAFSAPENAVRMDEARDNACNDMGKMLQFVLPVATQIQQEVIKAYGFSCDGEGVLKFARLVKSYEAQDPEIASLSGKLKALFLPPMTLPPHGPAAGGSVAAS
UniProt Q9BSB4: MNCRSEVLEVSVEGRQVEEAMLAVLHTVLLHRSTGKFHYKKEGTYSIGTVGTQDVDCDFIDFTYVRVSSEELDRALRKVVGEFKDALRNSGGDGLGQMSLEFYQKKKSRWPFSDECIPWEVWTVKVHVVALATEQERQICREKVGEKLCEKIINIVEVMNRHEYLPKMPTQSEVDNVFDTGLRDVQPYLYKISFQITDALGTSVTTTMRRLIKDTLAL
UniProt Q9BW91: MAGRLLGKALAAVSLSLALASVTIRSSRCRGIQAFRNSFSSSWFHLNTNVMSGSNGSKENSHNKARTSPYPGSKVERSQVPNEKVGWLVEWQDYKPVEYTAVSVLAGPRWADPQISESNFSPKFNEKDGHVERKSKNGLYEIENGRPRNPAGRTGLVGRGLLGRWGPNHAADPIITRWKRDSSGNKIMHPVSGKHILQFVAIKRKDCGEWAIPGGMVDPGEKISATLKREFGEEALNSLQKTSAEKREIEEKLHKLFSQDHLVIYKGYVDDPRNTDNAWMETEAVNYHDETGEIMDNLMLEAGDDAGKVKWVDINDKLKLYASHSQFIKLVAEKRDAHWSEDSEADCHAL
UniProt Q99575: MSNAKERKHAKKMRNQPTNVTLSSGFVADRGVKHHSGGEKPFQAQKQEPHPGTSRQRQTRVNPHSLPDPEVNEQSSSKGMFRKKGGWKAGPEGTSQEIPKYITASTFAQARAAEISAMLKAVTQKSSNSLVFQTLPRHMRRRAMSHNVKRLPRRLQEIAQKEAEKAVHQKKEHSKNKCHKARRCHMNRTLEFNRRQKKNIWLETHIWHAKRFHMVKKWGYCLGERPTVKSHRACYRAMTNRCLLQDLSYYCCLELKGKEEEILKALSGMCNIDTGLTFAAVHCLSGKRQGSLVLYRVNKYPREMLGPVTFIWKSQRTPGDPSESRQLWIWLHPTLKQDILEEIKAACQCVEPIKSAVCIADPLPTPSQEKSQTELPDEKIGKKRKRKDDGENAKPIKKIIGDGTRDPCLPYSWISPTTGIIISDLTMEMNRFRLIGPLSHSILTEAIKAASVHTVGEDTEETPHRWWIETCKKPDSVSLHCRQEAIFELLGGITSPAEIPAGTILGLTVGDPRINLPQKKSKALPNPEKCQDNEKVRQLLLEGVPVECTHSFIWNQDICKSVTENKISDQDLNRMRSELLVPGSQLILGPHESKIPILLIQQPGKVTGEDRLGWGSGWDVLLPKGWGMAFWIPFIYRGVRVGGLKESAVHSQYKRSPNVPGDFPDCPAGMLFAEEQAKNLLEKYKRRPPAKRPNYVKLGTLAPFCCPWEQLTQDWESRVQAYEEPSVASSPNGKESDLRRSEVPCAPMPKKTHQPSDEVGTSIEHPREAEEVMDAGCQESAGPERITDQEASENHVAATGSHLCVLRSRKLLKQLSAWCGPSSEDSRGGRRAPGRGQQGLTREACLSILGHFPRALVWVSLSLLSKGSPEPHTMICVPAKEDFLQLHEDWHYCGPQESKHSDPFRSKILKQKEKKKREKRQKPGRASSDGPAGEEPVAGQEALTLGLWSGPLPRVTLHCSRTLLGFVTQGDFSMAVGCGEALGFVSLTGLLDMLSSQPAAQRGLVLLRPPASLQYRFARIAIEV
UniProt Q9BTV5: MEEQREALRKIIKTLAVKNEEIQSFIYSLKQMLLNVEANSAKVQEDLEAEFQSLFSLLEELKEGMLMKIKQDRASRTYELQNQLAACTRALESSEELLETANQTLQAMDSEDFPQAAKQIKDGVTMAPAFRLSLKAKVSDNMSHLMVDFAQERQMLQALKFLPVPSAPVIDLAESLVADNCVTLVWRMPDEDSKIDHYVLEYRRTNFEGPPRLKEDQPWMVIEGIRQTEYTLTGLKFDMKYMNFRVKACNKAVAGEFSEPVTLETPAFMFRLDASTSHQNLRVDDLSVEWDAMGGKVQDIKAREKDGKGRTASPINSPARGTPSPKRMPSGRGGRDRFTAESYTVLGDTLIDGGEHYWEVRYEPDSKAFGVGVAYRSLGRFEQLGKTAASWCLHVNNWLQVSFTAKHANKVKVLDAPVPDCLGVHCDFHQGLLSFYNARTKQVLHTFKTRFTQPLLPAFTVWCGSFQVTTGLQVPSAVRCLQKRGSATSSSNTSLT
UniProt Q9BUL5: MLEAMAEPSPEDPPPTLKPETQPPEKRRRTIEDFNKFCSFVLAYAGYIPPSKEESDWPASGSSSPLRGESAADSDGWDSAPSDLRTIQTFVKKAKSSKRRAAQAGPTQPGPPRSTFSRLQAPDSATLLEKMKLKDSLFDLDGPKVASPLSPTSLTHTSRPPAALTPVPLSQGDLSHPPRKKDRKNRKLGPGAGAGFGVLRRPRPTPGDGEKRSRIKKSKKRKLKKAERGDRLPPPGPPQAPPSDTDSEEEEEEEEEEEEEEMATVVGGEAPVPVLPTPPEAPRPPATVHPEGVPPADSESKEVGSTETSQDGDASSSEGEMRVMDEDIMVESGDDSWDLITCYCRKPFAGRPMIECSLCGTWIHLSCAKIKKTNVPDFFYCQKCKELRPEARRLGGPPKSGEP

Compound in the first assay: CCc1cnccc1C(=O)Nc1cc2c(cc1F)NC(=O)CC2
The assay is described as follows: melting temperature shift (DMSO Tm minus MBE1-treated Tm) in cellular thermal proteome profiling; higher = less thermal stabilization by MBE1 (negative = stabilized by MBE1). Particulars: A375; MBE1 concentration: 100 nM.
With UniProt Q9BUP0, the melting temperature shift was -1.13 °C.
On to COPS8 (UniProt Q99627), for which the melting temperature shift is -0.879 °C.
On the same count and under the same terms, to UniProt Q99576 belongs -1.91 °C; to THUMPD2 (UniProt Q9BTF0), -0.311 °C.
With UniProt Q9BRX9, the melting temperature shift came out at 0.725 °C.

Staying with this assay, now noted: A375; MBE1 concentration: 1 uM.
In the case of AIFM2 (UniProt Q9BRQ8), the melting temperature shift was 0.436 °C.
The same measure, in the same setting: then NTPCR (UniProt Q9BSD7), with 0.226 °C; and DHRS4 (UniProt Q9BTZ2), with 1.62 °C.
Turning to OSBPL10 (UniProt Q9BXB5), the melting temperature shift was -0.339 °C.
On the same count and under the same terms, then TARS2 (UniProt Q9BW92), with 0.193 °C; and PDCD2L (UniProt Q9BRP1), with 0.0427 °C.
Same read-out and setting: then PSMG3 (UniProt Q9BT73), with 2.1 °C.
Turning to RBM42 (UniProt Q9BTD8), the melting temperature shift was -0.985 °C.
Same read-out and setting: then UniProt Q9BY66, with -0.535 °C; and CHID1 (UniProt Q9BWS9), with 0.323 °C; and UniProt Q9BRK4, with 1.43 °C.
The same measure, in the same setting: to COPS4 (UniProt Q9BT78) belongs 0.0134 °C; to UniProt Q9BU64, 0.791 °C; to UniProt Q99622, -1.98 °C.
Same read-out and setting: to UniProt Q9BW30 belongs -1.55 °C.
ATG101 (UniProt Q9BSB4): the melting temperature shift is -2.81 °C.
For the target HSD17B10 (UniProt Q99714), the melting temperature shift worked out at 0.376 °C.
On to MLST8 (UniProt Q9BVC4), for which the melting temperature shift is 0.539 °C.
On the same count and under the same terms, to NUDT9 (UniProt Q9BW91) belongs -0.281 °C.
The same measure, in the same setting: to NDUFAF3 (UniProt Q9BU61) belongs -0.543 °C; to HGH1 (UniProt Q9BTY7), -0.45 °C.
Take POP1 (UniProt Q99575): the melting temperature shift was -0.615 °C.
Still for that read-out and setting: then UniProt Q9BTV5, with -0.33 °C.
Still for that read-out and setting: then PIP5K1A (UniProt Q99755), with 0.708 °C; and LLPH (UniProt Q9BRT6), with -2.08 °C.
The same measure, in the same setting: then PHF23 (UniProt Q9BUL5), with -1.33 °C; and WAC (UniProt Q9BTA9), with -0.0897 °C; and UniProt Q99735, with -2.6 °C.

Source of the values: the supplement of paper PMC12595434, “Development of retinoid nuclear receptor pathway antagonists through targeting aldehyde dehydrogenase 1A3” (iScience, 2025).
